{"source": "patent US7049289B1", "about": "(Amersham PLC, priority 1998, dated 2006)", "test": "general procedure: Fmoc solid-phase peptide synthesis; 2-chlorotrityl resin; Rink resin; BOP/HOBt", "settings": "conjugation step"}
{"substance": "Asn(Trt)-Gln(Trt)-Glu(tBu)-Gln(Trt)-Val-Ser(tBu)-Pro-Tyr(tBu)-Thr(tBu)-Leu-Leu-Lys(Boc)-Gly-Pn216", "values": [{"measurement": "conjugation yield", "value": 82, "unit": "%"}]}
